Source: the supplement of paper PMC4604168 (melanoma cell lines)
This is one part of the list. Single values are uncertain, as repeats are few or missing.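 Cells were imaged in 1,536-well plates, and nuclei stained with an antibody against cleaved PARP were counted against all DNA-stained nuclei to give the apoptosis fraction. Screening doses were chosen to leave most cells alive, and resting and induced cleaved-PARP levels differ strongly between cell lines.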

tested on: IST-MEL1; assay: cleaved PARP positive nuclei fraction relative to DMSO control; melanoma cells; higher = more apoptosis; settings: library dose: low library concentration; 72 h

Row | SMILES | cleaved PARP positive nuclei fraction
1 | Cc1cc(Nc2cc(N3CCN(C)CC3)nc(Sc3ccc(NC(=O)C4CC4)cc3)n2)n[nH]1 [Tozasertib] + Cc1cc(Nc2cc(N3CCN(C)CC3)nc(/C=C/c3ccccc3)n2)n[nH]1 [ENMD2076] (first compound 0.006 µM, partner dose 0.04 µM) | 32.6%
2 | O=C(Nc1cc(C(F)(F)F)cc(C(F)(F)F)c1)c1cc(Cl)ccc1O + C[C@]1(c2nc3c(C(N)=O)cccc3[nH]2)CCCN1 [Veliparib] (first compound 0.016 µM, partner dose 1.4 µM) | 111%
3 | O=C(Nc1cc(C(F)(F)F)cc(C(F)(F)F)c1)c1cc(Cl)ccc1O + Nc1ncn([C@H]2C[C@H](O)[C@@H](CO)O2)c(=O)n1 [decitabine] (first compound 0.016 µM, partner dose 0.1 µM) | 41%
4 | CC[C@]1(O)C[C@H]2CN(CCc3c([nH]c4ccccc34)[C@@](C(=O)OC)(c3cc4c(cc3OC)N(C=O)[C@H]3[C@@](O)(C(=O)OC)[C@H](OC(C)=O)[C@]5(CC)C=CCN6CC[C@]43[C@@H]65)C2)C1 [vincristine] + Cn1c(Nc2ccc(C(F)(F)F)cc2)nc2cc(Oc3ccnc(-c4ncc(C(F)(F)F)[nH]4)c3)ccc21 [CHIR265] (first compound 0.0001 µM, partner dose 0.08 µM) | 142%
5 | Cc1cc(Nc2cc(N3CCN(C)CC3)nc(Sc3ccc(NC(=O)C4CC4)cc3)n2)n[nH]1 [Tozasertib] + N#CC[C@H](C1CCCC1)n1cc(-c2ncnc3[nH]ccc23)cn1 [ruxolitinib] (first compound 0.006 µM, partner dose 1 µM) | 142%
